Results deposited as PubChem BioAssay AID1259315 (Drosophila RNAi Screening Center, 2017).

Assay: 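Fly genes whose loss alters cell survival under toxic zinc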 (primary screen)
Cells: Drosophila S2R+ cells
Reagents: long dsRNA against Drosophila genes
Timing: 5 days (4 days knock-down, then 1 day with zinc)
Challenge: zinc chloride added to 15 mM final for 1 day
Measurement: 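ATP luminescence reflecting cell viability after 4 days of knock-down then 1 day with 15 mM zinc chloride; mean z-score of two replicate plates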
Reading the numbers: mean ATP z-score: higher = more ATP, more cells surviving zinc
Call rule: 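Hit when the mean ATP z-score exceeds 1.5 or falls below -1.5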
Shown is one part, drawn at random, of 418 deposited reagents. 17 of all reagents (4.1%) were called active. 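z-scores average two replicate plates; all hits raised ATP and none lowered it.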 Reagent sequences are not shown. The record does not give: the amount of reagent.

| target | amplicon | mean ATP z-score | Outcome |
| --- | --- | --- | --- |
| LManI | DRSC24754 | -0.182 | inactive |
| LManI | DRSC39016 | -0.226 | inactive |
| LManI | DRSC41065 | -0.246 | inactive |
| Agxt | DRSC18718 | -0.202 | inactive |
| Agxt | DRSC26115 | -0.291 | inactive |
| Mfe2 | DRSC19869 | -0.273 | inactive |
| Xpd | DRSC27757 | -0.0521 | inactive |
| Xpd | DRSC36088 | -0.129 | inactive |
| Xpd | DRSC41045 | -0.0852 | inactive |
| Vha26 | DRSC25503 | 0.532 | inactive |
| Vha26 | DRSC31688 | 0.176 | inactive |
| Vha26 | DRSC38973 | 0.552 | inactive |
| Vps4 | DRSC19338 | 6.67 | active |
| Vps4 | DRSC25068 | 2.52 | active |
| Vps4 | DRSC31082 | 0.00405 | inactive |
| Pex19 | DRSC02839 | 0.116 | inactive |
| Vha100-2 | DRSC14152 | 0.325 | inactive |
| Vha100-2 | DRSC29227 | 0.526 | inactive |
| CG10194 | DRSC02025 | -0.141 | inactive |
| Gba1a | DRSC21494 | -0.116 | inactive |
| mnd | DRSC11370 | -0.234 | inactive |
| mnd | DRSC39608 | -0.409 | inactive |
| JhI-21 | DRSC02161 | -0.205 | inactive |
| JhI-21 | DRSC29181 | -0.319 | inactive |
| CG17134 | DRSC02583 | 0.442 | inactive |
| ACC | DRSC07249 | 0.747 | inactive |
| ACC | DRSC30763 | 1.01 | inactive |
| ACC | DRSC30764 | 0.445 | inactive |
| Chc | DRSC20229 | 0.345 | inactive |
| Chc | DRSC34418 | -0.155 | inactive |
| Chc | DRSC34419 | -0.11 | inactive |
| Gnpat | DRSC16960 | -0.204 | inactive |
| Gnpat | DRSC40415 | -0.178 | inactive |
| wat | DRSC14854 | 0.362 | inactive |
| wat | DRSC34735 | -0.153 | inactive |
| AP-1-2beta | DRSC19336 | -0.215 | inactive |
| AP-1-2beta | DRSC23868 | -0.253 | inactive |
| AP-1-2beta | DRSC31080 | 0.00474 | inactive |
| VhaM9.7-a | DRSC08289 | 0.0495 | inactive |
| VhaM9.7-a | DRSC28340 | -0.268 | inactive |
| Amacr | DRSC03198 | -0.019 | inactive |
| Vps16A | DRSC16422 | -0.00925 | inactive |
| Vps16A | DRSC36082 | -0.257 | inactive |
| pic | DRSC16639 | 1.88 | active |
| pic | DRSC31603 | 1.73 | active |
| pic | DRSC31604 | 1.4 | inactive |
| VhaAC39-2 | DRSC15609 | -0.2 | inactive |
| VhaAC39-2 | DRSC34799 | -0.182 | inactive |
| Vha16-1 | DRSC05020 | 0.65 | inactive |
| Vha16-1 | DRSC32228 | 0.486 | inactive |
| Vha16-1 | DRSC32229 | -0.0149 | inactive |
| CG3961 | DRSC10390 | 1.17 | inactive |
| CG3961 | DRSC10391 | -0.247 | inactive |
| CG3961 | DRSC35309 | -0.197 | inactive |
| Vps24 | DRSC12332 | -0.162 | inactive |
| Vps24 | DRSC29224 | -0.316 | inactive |
| Vps24 | DRSC34417 | -0.0163 | inactive |
| Vps13 | DRSC06817 | -0.0613 | inactive |
| Vps13 | DRSC29275 | -0.161 | inactive |
| Vps13 | DRSC35042 | -0.15 | inactive |
| CG7402 | DRSC10839 | -0.127 | inactive |
| Npc1a | DRSC03378 | 0.0752 | inactive |
| Npc1a | DRSC33330 | -0.286 | inactive |
| Npc1a | DRSC39428 | -0.261 | inactive |
| ClC-b | DRSC07220 | -0.17 | inactive |
| ClC-b | DRSC37711 | -0.407 | inactive |
| ClC-b | DRSC39990 | -0.4 | inactive |
| Daao1 | DRSC06131 | -0.29 | inactive |
| Cln7 | DRSC11005 | -0.193 | inactive |
| Cln7 | DRSC40187 | -0.463 | inactive |
| Dhrs4 | DRSC09773 | -0.12 | inactive |
| Gga | DRSC18260 | -0.267 | inactive |
| Gga | DRSC27761 | -0.137 | inactive |
| TrpRS-m | DRSC10848 | 2.05 | active |
| TrpRS-m | DRSC40413 | -0.509 | inactive |
| CG4860 | DRSC21755 | -0.198 | inactive |
| VhaM9.7-b | DRSC11841 | -0.224 | inactive |
| VhaM9.7-b | DRSC40199 | 0.459 | inactive |
| Cat | DRSC11110 | -0.177 | inactive |
| Cat | DRSC24077 | -0.262 | inactive |
| Cat | DRSC38942 | -0.245 | inactive |
| Gnptab | DRSC07057 | -0.31 | inactive |
| hay | DRSC11354 | 2.18 | active |
| hay | DRSC35779 | 4.24 | active |
| hay | DRSC37557 | 1.13 | inactive |
| CG31926 | DRSC00295 | -0.309 | inactive |
| CG31926 | DRSC29022 | -0.407 | inactive |
| Pex11ab | DRSC07145 | -0.21 | inactive |
| Hexo2 | DRSC18671 | -0.287 | inactive |
| CatB | DRSC03194 | -0.226 | inactive |
| CatB | DRSC24516 | -0.199 | inactive |
| CatB | DRSC38069 | -0.271 | inactive |
| sbm | DRSC20185 | -0.342 | inactive |
| sbm | DRSC40020 | -0.4 | inactive |
| Vha36-1 | DRSC07098 | 3.35 | active |
| Vha36-1 | DRSC25624 | -0.0355 | inactive |
| Mpv17 | DRSC17198 | -0.217 | inactive |
| Mpv17 | DRSC39911 | -0.366 | inactive |
| CG17544 | DRSC02624 | -0.195 | inactive |
| CG17544 | DRSC25562 | -0.342 | inactive |
| VhaPPA1-2 | DRSC16176 | -0.18 | inactive |
| VhaPPA1-2 | DRSC25591 | -0.174 | inactive |
| Abcd3 | DRSC29341 | -0.322 | inactive |
| Abcd3 | DRSC41060 | -0.364 | inactive |
| Abcd3 | DRSC41168 | -0.257 | inactive |
| Sod2 | DRSC07554 | 0.0225 | inactive |
| Sod2 | DRSC27050 | -0.22 | inactive |
| Vps45 | DRSC16398 | 0.0831 | inactive |
| Vps45 | DRSC34819 | -0.196 | inactive |
| Vps45 | DRSC37502 | -0.235 | inactive |

In a second layout: results already given.
Gnpat [DRSC40415]
- mean ATP z-score: -0.178
- Outcome: inactive

wat [DRSC14854]
- mean ATP z-score: 0.362
- Outcome: inactive

wat [DRSC34735]
- mean ATP z-score: -0.153
- Outcome: inactive

AP-1-2beta [DRSC19336]
- mean ATP z-score: -0.215
- Outcome: inactive

AP-1-2beta [DRSC23868]
- mean ATP z-score: -0.253
- Outcome: inactive

AP-1-2beta [DRSC31080]
- mean ATP z-score: 0.00474
- Outcome: inactive

VhaM9.7-a [DRSC08289]
- mean ATP z-score: 0.0495
- Outcome: inactive

VhaM9.7-a [DRSC28340]
- mean ATP z-score: -0.268
- Outcome: inactive

Amacr [DRSC03198]
- mean ATP z-score: -0.019
- Outcome: inactive

Vps16A [DRSC16422]
- mean ATP z-score: -0.00925
- Outcome: inactive

Vps16A [DRSC36082]
- mean ATP z-score: -0.257
- Outcome: inactive

pic [DRSC16639]
- mean ATP z-score: 1.88
- Outcome: active

pic [DRSC31603]
- mean ATP z-score: 1.73
- Outcome: active

pic [DRSC31604]
- mean ATP z-score: 1.4
- Outcome: inactive

VhaAC39-2 [DRSC15609]
- mean ATP z-score: -0.2
- Outcome: inactive
